This note sets out measurements from paper PMC4381397, “The recently identified modifier of murine metastable epialleles, Rearranged L-Myc Fusion, is involved in maintaining epigenetic marks at CpG island shores and enhancers”.

For at least one entry, the source does not settle the construct or the ends of the probe. For some of these results: No signal at the amounts used counts as a negative.

One data set concerns GST-Rlf1001-1362 (mouse). As to the kind of experiment: EMSA. Particulars: 0.5 and 5 uM protein, 5 nM probe, 10 uM ZnSO4; 10 mM HEPES pH 7.9, 30 mM NaCl, 1 mM MgCl2, 20 uM EDTA, 10 mM DTT, 10 uM ZnSO4, 67 ug/mL acetylated BSA, 4% Ficoll; on ice 30 min; recombinant protein; protein details: N-terminal GST (pGEX-6P); label: 5' FAM; single-stranded DNA. (A gel shift assay detects complexes by their altered migration in electrophoresis.)

For another data set, the system named is GST-Rlf431-513 (mouse). As to the kind of experiment: EMSA. As to conditions: 0.5 and 5 uM protein, 5 nM probe, 10 uM ZnSO4; 10 mM HEPES pH 7.9, 30 mM NaCl, 1 mM MgCl2, 20 uM EDTA, 10 mM DTT, 10 uM ZnSO4, 67 ug/mL acetylated BSA, 4% Ficoll; on ice 30 min; recombinant protein; protein details: N-terminal GST (pGEX-6P); label: 5' FAM; single-stranded DNA.

With “TATCTTACTTTAGTTTCATTTAATTGTGTTGTACTCTCCTCTGCGTTCACTTAGCTTAACTTGGTTTGGCTTGATTTGACTTCAGTTGCGCTCTATTCTA [PP2 pentaprobe]”, the figures for the binding result in the data set with GST-Rlf1001-1362 (mouse) and in the data set on GST-Rlf431-513 (mouse) were “binds” and “no binding”, respectively.

Regarding “TATCCTACCCATTGGGCTCATCTGATCCATCCGGTCCCGTCCACTCGGCTATGTTATGCTGTATTGCAGTCGTGTCGCGTCGAGCTGCCCTAATCCCACC [PP4 pentaprobe]”, the binding result is listed as “binds” with GST-Rlf1001-1362 (mouse) and “no binding” in the data set with GST-Rlf431-513 (mouse).
